Experimental data: PubChem BioAssay AID686937 (Drosophila RNAi Screening Center, 2013)
Assay: 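Knock-downs that reduce output of a secreted reporter enzyme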 (primary screen). Cells: Drosophila S2 cells expressing secreted horseradish peroxidase. Knock-down reagent: long dsRNA against Drosophila genes. Time to read-out: about 5.5 days (5 days dsRNA, then 12 h reporter induction). Challenge: reporter expression induced after 5 days of dsRNA, read 12 h later; inducer not stated. Measurement: 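After 5 days of dsRNA and 12 h of reporter induction, medium peroxidase read by chemiluminescence and scored as per-plate z-score; higher values mean more reporter released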. Direction: z-score: higher = more reporter secreted into medium.
In all, the deposit lists about 23,000 reagents; below is a random part of those that have a named target and a result. 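Reduced-secretion tags in replicate 1 do not always agree with the z-scores; no criterion for assigning the tags was given.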 Further read-outs or replicates are left out here. Reagent sequences are not shown. The record does not give: the amount of reagent.

CG13066 [DRSC09949] | z-score, replicate 1: 0.4
CG31269 [DRSC15744] | z-score, replicate 1: 0
5-HT7 [DRSC12635] | z-score, replicate 1: 0.07
mRpL39 [DRSC10255] | z-score, replicate 1: -0.68
SPR [DRSC17390] | z-score, replicate 1: 0.32
SPR [DRSC17886] | z-score, replicate 1: 0.59
SPR [DRSC18114] | z-score, replicate 1: 0.56
SPR [DRSC21557] | z-score, replicate 1: 0.02
Cul2 [DRSC03710] | z-score, replicate 1: 0.29
CG31681 [DRSC00107] | z-score, replicate 1: 0.51
pim [DRSC03591] | z-score, replicate 1: -1.89
CG13042 [DRSC09923] | z-score, replicate 1: 0.18
AGO2 [DRSC09999] | z-score, replicate 1: -0.33
AGO2 [DRSC10847] | z-score, replicate 1: -2.27
cora [DRSC07597] | z-score, replicate 1: 0.33
PH4alphaEFB [DRSC14473] | z-score, replicate 1: 0.42
PH4alphaEFB [DRSC14950] | z-score, replicate 1: 0.35
Elba1 [DRSC00276] | z-score, replicate 1: -0.26
TpnC47D [DRSC07564] | z-score, replicate 1: 0.33
Usp15-31 [DRSC04426] | z-score, replicate 1: 0.05
Usp15-31 [DRSC04532] | z-score, replicate 1: -1.41
Uch-L5R [DRSC19825] | z-score, replicate 1: 0.17
CG32263 [DRSC22431] | z-score, replicate 1: 0.41
CG10029 [DRSC12498] | z-score, replicate 1: 0.33
Git [DRSC06620] | z-score, replicate 1: 0.38
Slmap [DRSC03799] | z-score, replicate 1: -1.19
Grl36a [DRSC21748] | z-score, replicate 1: -0.65
Top1 [DRSC20295] | z-score, replicate 1: 0.19
rod [DRSC17047] | z-score, replicate 1: 0.13
Ir94d [DRSC21568] | z-score, replicate 1: 0.21
Ugt37A2 [DRSC15861] | z-score, replicate 1: 0.05
HP1c [DRSC16166] | z-score, replicate 1: 0.23
ATPsynE [DRSC15476] | z-score, replicate 1: -0.06
CG15877 [DRSC08485] | z-score, replicate 1: -0.02
gig [DRSC11351] | z-score, replicate 1: 0.53
Vps25 [DRSC06486] | z-score, replicate 1: -0.04
CG13358 [DRSC18534] | z-score, replicate 1: 0.48
CG14075 [DRSC10080] | z-score, replicate 1: 0.49
CG2961 [DRSC18246] | z-score, replicate 1: 0.34
TM4SF [DRSC04661] | z-score, replicate 1: 0.16
Vhl [DRSC07716] | z-score, replicate 1: 0.35
PH4alphaNE3 [DRSC16541] | z-score, replicate 1: 0.43
Pits [DRSC19385] | z-score, replicate 1: -1.84
Pits [DRSC19812] | z-score, replicate 1: 0.32
Myo28B1 [DRSC03375] | z-score, replicate 1: 0.48
CG18233 [DRSC10308] | z-score, replicate 1: 0.2
Neurl4 [DRSC10638] | z-score, replicate 1: 0.32
tor [DRSC07707] | z-score, replicate 1: 0.05
Pi3K21B [DRSC00771] | z-score, replicate 1: 0.49
CG12911 [DRSC06226] | z-score, replicate 1: 0.25
CG8379 [DRSC16414] | z-score, replicate 1: 0.35

Already shown: 9 of the entries above.
Uch-L5R [DRSC19825] | z-score, replicate 1: 0.17
CG32263 [DRSC22431] | z-score, replicate 1: 0.41
CG10029 [DRSC12498] | z-score, replicate 1: 0.33
Git [DRSC06620] | z-score, replicate 1: 0.38
Slmap [DRSC03799] | z-score, replicate 1: -1.19
Grl36a [DRSC21748] | z-score, replicate 1: -0.65
Top1 [DRSC20295] | z-score, replicate 1: 0.19
rod [DRSC17047] | z-score, replicate 1: 0.13
Ir94d [DRSC21568] | z-score, replicate 1: 0.21
